In publication PMC12638823:
No constants are given. Whether binding was seen depends on the method and setting. Binding seen in cells or lysates may run through a third protein. A yes stands for co-enrichment or nearness to the bait. Other partners may have been found. Each block holds one molecule with its values, some of them ahead of it.

Sequences of proteins named here, by UniProt entry; tags and fusion partners are left off.
UniProt Q9NYV6: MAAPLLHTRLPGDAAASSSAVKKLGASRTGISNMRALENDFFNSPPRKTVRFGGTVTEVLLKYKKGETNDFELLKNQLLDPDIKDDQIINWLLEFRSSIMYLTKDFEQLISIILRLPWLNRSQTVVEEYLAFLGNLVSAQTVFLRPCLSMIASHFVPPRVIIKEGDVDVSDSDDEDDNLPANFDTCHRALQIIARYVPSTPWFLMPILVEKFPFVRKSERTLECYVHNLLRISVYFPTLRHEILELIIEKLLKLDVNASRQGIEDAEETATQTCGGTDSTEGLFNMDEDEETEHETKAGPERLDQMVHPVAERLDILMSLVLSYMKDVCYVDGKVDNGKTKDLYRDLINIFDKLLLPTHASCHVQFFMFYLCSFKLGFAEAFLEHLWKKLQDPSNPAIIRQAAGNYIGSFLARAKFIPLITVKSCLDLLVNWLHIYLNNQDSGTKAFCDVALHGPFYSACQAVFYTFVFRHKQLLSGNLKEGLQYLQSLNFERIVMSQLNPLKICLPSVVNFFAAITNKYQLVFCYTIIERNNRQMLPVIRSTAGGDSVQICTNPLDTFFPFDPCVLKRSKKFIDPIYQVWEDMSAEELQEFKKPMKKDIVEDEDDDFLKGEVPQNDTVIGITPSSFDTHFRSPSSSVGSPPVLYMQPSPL
UniProt P11940: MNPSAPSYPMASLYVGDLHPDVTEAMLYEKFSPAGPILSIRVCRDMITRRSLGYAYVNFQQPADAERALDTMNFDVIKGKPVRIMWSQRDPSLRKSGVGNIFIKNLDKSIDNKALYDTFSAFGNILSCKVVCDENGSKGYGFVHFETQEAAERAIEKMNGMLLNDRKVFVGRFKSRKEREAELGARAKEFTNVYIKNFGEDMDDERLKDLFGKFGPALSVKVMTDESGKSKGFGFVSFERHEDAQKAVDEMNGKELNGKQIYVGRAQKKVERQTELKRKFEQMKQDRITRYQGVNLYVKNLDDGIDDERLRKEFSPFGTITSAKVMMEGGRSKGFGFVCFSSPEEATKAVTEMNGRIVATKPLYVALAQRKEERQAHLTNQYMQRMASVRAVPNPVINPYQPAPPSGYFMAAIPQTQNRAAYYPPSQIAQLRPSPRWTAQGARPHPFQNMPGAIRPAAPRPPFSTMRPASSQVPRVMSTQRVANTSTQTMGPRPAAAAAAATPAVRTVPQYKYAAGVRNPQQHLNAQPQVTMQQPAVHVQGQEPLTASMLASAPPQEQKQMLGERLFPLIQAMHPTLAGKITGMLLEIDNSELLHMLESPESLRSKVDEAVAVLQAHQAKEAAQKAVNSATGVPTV

Molecular target: V5-tagged RRN3 (stably expressed in SK-OV-3 cells) (human) (UniProt Q9NYV6)
Assay: affinity purification with mass spectrometry; anti-V5 immunoprecipitation from chromatin-associated proteins of SK-OV-3 cells stably expressing V5-RRN3 (empty vector as control); UHPLC-MS/MS

binding: binds
Molecule: PABPC1 (endogenous, SK-OV-3 cells) (from UniProt P11940 1-636)

binding: binds
B1: SAMD4A (endogenous, SK-OV-3 cells) (protein, UniProt Q9UPU9 1-718)
chain: MMFRDQVGVLAGWFKGWNECEQTVALLSLLKRVSQTQARFLQLCLEHSLADCAELHVLEREANSPGIINQWQQESKDKVISLLLTHLPLLKPGNLDAKVEYMKLLPKILAHSIEHNQHIEESRQLLSYALIHPATSLEDRSALAMWLNHLEDRTSTSFGGQNRGRSDSVDYGQTHYYHQRQNSDDKLNGWQNSRDSGICINASNWQDKSMGCENGHVPLYSSSSVPTTINTIGTSTSTILSGQAHHSPLKRSVSLTPPMNVPNQPLGHGWMSHEDLRARGPQCLPSDHAPLSPQSSVASSGSGGSEHLEDQTTARNTFQEEGSGMKDVPAWLKSLRLHKYAALFSQMTYEEMMALTECQLEAQNVTKGARHKIVISIQKLKERQNLLKSLERDIIEGGSLRIPLQELHQMILTPIKAYSSPSTTPEARRREPQAPRQPSLMGPESQSPDCKDGAAATGATATPSAGASGGLQPHQLSSCDGELAVAPLPEGDLPGQFTRVMGKVCTQLLVSRPDEENISSYLQLIDKCLIHEAFTETQKKRLLSWKQQVQKLFRSFPRKTLLDISGYRQQRNRGFGQSNSLPTAGSVGGGMGRRNPRQYQIPSRNVPSARLGLLGTSGFVSSNQRNTTATPTIMKQGRQNLWFANPGGSNSMPSRTHSSVQRTRSLPVHTSPQNMLMFQQPEFQLPVTEPDINNRLESLCLSMTEHALGDGVDRTSTI
